# In the supplement of paper PMC9135407:
# “And” between values parts separate entries of the source, which are not always exact repeats. Equal values may be shown once. Where a name gives a salt, the structure may show the parent alone. ± gives the standard deviation of the averaged measurements. The list shows a part of the results. Part of the spread comes from offsets between plates or batches.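 Primary human stellate myofibroblasts activated in culture; inactivation shown by regained lipid droplets. Readout: fraction of Hoechst-counted cells exceeding a per-plate Bodipy threshold, duplicate wells, each plate with DMSO negative and nortriptyline positive controls. Hits: control-normalized score beyond the plate's top-tenth-percentile nortriptyline wells, or among its three best wells. Final well concentrations unstated.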
# Test system: primary human hepatic stellate cells (donor 1)
# Test: percent Bodipy-positive cells; higher = more lipid droplet accumulation
# Conditions: 48 h
# [1] = library stock concentration: 3.33 mM
# [2] = library stock concentration: 10 mM
# [3] = library stock concentration: 1 mM
# [4] = library stock concentration: 5 mM
smiles,measurement,setting,value
CN(NC(=O)CC(=O)NN(C)C(=S)c1ccccc1)C(=S)c1ccccc1 [Elesclomol (STA-4783)],percent Bodipy-positive cells,[1],10.9 ± 4.4%
same,percent Bodipy-positive cells,[2],18 ± 6.1%
CCCCCC(=O)/C=C/[C@H]1[C@H](O)CC(=O)[C@@H]1CCCCCCC(=O)O [15-keto Prostaglandin E1],percent Bodipy-positive cells,[3],17.9 ± 5%
"Nc1nc2c(nc(Br)n2[C@@H]2O[C@@H]3COP(=O)(O)O[C@H]3[C@H]2O)c(=O)[nH]1 [8-Bromo-cGMP, sodium salt]",percent Bodipy-positive cells,[2],6.34 ± 0.065%
CCN1CCN(C(=O)N[C@@H](C(=O)N[C@@H]2C(=O)N3[C@@H]2SC(C)(C)[C@@H]3C(=O)O)c2ccccc2)C(=O)C1=O [Piperacillin sodium],percent Bodipy-positive cells,[2],17.9 ± 5%
CCN1CCN(C(=O)N[C@@H](C(=O)N[C@@H]2C(=O)N3[C@@H]2SC(C)(C)[C@@H]3C(=O)O)c2ccccc2)C(=O)C1=O [Piperacillin Sodium],percent Bodipy-positive cells,[1],12.2 ± 1.2%
same,percent Bodipy-positive cells,[2],23.5 ± 9.4%
CCN1CCN(C(=O)N[C@@H](C(=O)N[C@@H]2C(=O)N3[C@@H]2SC(C)(C)[C@@H]3C(=O)O)c2ccccc2)C(=O)C1=O,percent Bodipy-positive cells,[2],30.52 ± 0.27%
CCN1CCN(C(=O)N[C@@H](C(=O)N[C@@H]2C(=O)N3[C@@H]2SC(C)(C)[C@@H]3C(=O)O)c2ccccc2)C(=O)C1=O [Piperacillin sodium salt],percent Bodipy-positive cells,,8.78 ± 2.4%
CC(=O)Oc1cccc(O)c1 [Resorcinol monoacetate],percent Bodipy-positive cells,[2],25.6 ± 8.4%
same,percent Bodipy-positive cells,library stock concentration: 13.1 mM,11.3 ± 4.4%
CN[C@@H]1C[C@H]2O[C@@](C)([C@@H]1OC)n1c3ccccc3c3c4c(c5c6ccccc6n2c5c31)C(=O)N[C@H]4O,percent Bodipy-positive cells,[1],99.66 ± 0.00071%
O=[N+]([O-])c1ccc2c(c1)S(=O)(=O)C=C2 [Stattic],percent Bodipy-positive cells,[1],100%
"NCCCCCCCCCCN [1,10-Diaminodecane]",percent Bodipy-positive cells,[2],39.32 ± 0.1%
OC[C@H]1O[C@@H](Oc2ccc(O)cc2)[C@H](O)[C@@H](O)[C@@H]1O [Arbutin],percent Bodipy-positive cells,,6.92 ± 1.5%
same,percent Bodipy-positive cells,[1],14 ± 11%
same,percent Bodipy-positive cells,[2],7.85 ± 3.9%
O=C(c1ccc(C(=O)N2CCC(N3CCCC3)CC2)c(Nc2ccccc2)c1)N1CCC(N2CCCC2)CC1,percent Bodipy-positive cells,library stock concentration: 80 uM,29.2 ± 5%
same,percent Bodipy-positive cells,library stock concentration: 400 uM,29.6 ± 4.9%
same,percent Bodipy-positive cells,library stock concentration: 2 mM,43.1 ± 4.8%
same,percent Bodipy-positive cells,[1],14.4 ± 4%
same,percent Bodipy-positive cells,[2],43.8% and 55.2%
O=Nc1ccc(O)c2ncccc12,percent Bodipy-positive cells,[2],20.1 ± 1.6%
Nc1ccc(S(=O)(=O)c2ccc(N)cc2)cc1,percent Bodipy-positive cells,[2],33.9 ± 4.5%
Nc1ccc(S(=O)(=O)c2ccc(N)cc2)cc1 [Dapsone],percent Bodipy-positive cells,,26.2 ± 4%
same,percent Bodipy-positive cells,library stock concentration: 8.1 mM,2.98 ± 0.26%
same,percent Bodipy-positive cells,[2],9.58 ± 1.8%
OCCN1CCN(CCCN2c3ccccc3Sc3ccc(Cl)cc32)CC1 [Perphenazine],percent Bodipy-positive cells,,71.7 ± 4%
same,percent Bodipy-positive cells,[4],88.8 ± 6.5%
same,percent Bodipy-positive cells,[2],99.51 ± 0.69%
CNCCC(Oc1ccc(C(F)(F)F)cc1)c1ccccc1.Cl (stereo unspecified) [Fluoxetine],percent Bodipy-positive cells,library stock concentration: 5.8 mM,83.1 ± 1.4%
CN(C)CCc1c[nH]c2ccc(Cn3cncn3)cc12,percent Bodipy-positive cells,[2],5.8 ± 1.4%
CN(C)CCc1c[nH]c2ccc(Cn3cncn3)cc12 [Rizatriptan Benzoate],percent Bodipy-positive cells,[1],10.2 ± 2.9%
same,percent Bodipy-positive cells,[2],18 ± 7.3%
CN(C)CCc1c[nH]c2ccc(Cn3cncn3)cc12 [Rizatriptan benzoate],percent Bodipy-positive cells,library stock concentration: 5.1 mM,12.8 ± 4.9%
CCCCC[C@H](O)/C=C/[C@@H]1[C@@H](C/C=C\CCCC(=O)NC(CO)CO)[C@@H](O)C[C@H]1O [Prostaglandin F2.alpha. serinol amide],percent Bodipy-positive cells,[3],10.9 ± 2.3%
Fc1ccc(-c2nc3n(c2-c2ccncc2)CCS3)cc1,percent Bodipy-positive cells,[1],11.8 ± 1.8%
same,percent Bodipy-positive cells,[2],6.76 ± 1.9%
CCC[C@H](N[C@@H](C)C(=O)N1[C@H](C(=O)O)C[C@@H]2CCCC[C@@H]21)C(=O)OCC [Perindopril erbumine],percent Bodipy-positive cells,library stock concentration: 4.5 mM,9.54 ± 5.5%
same,percent Bodipy-positive cells,[2],60.7 ± 19%
CCC[C@H](N[C@@H](C)C(=O)N1[C@H](C(=O)O)C[C@@H]2CCCC[C@@H]21)C(=O)OCC [Perindopril],percent Bodipy-positive cells,,8.36 ± 5.6%
CCCC(=O)O[C@]1(C(=O)COC(C)=O)CC[C@H]2[C@@H]3C[C@H](F)C4=CC(=O)C=C[C@]4(C)[C@@]3(F)[C@@H](O)C[C@@]21C [Difluprednate],percent Bodipy-positive cells,[1],18.8 ± 6.3%
same,percent Bodipy-positive cells,[2],18.7 ± 7.7%
Cn1nnnc1SCC1=C(C(=O)O)N2C(=O)[C@@H](NC(=O)[C@H](O)c3ccccc3)[C@H]2SC1 [Cefamandole sodium salt],percent Bodipy-positive cells,,5.93 ± 0.48%
COCCOc1ccc2c(c1)ncn2-c1ccc2cccc(N3CCC(N)CC3)c2n1,percent Bodipy-positive cells,[2],98.58 ± 0.89%
Nc1ccc(C(=O)NCC(=O)O)cc1 [4-Aminohippuric Acid],percent Bodipy-positive cells,[1],10.3 ± 3%
same,percent Bodipy-positive cells,[2],28.4 ± 11%
Nc1ccc(C(=O)NCC(=O)O)cc1 [Aminohippuric acid],percent Bodipy-positive cells,,10.1 ± 4.6%
same,percent Bodipy-positive cells,[2],39.7 ± 5%
COc1ccc(NS(=O)(=O)c2ccc(N)cc2)nn1 [Sulfamethoxypyridazine],percent Bodipy-positive cells,,9.08 ± 5.5%
same,percent Bodipy-positive cells,[1],12.8 ± 3.9%
same,percent Bodipy-positive cells,library stock concentration: 7.1 mM,17.1 ± 8.6%
same,percent Bodipy-positive cells,[2],35.3% and 28.8%
CC1(C)OC(=O)NC1=O [Dimethadione],percent Bodipy-positive cells,,8.41 ± 0.58%
same,percent Bodipy-positive cells,[2],10.7 ± 0.61%
same,percent Bodipy-positive cells,library stock concentration: 15.5 mM,4 ± 0.52%
N=C(N)NCC1COC2(CCCCC2)O1 (stereo unspecified) [Guanadrel sulfate],percent Bodipy-positive cells,,9.29 ± 0.25%
N[C@@H](C(=O)O)c1ccc(C(=O)O)c(C(=O)O)c1,percent Bodipy-positive cells,[2],7.46 ± 1.1%
CNc1nc(Nc2cnn(C3CCN(C4COC4)CC3F)c2Cl)ncc1C(F)(F)F (stereo unspecified),percent Bodipy-positive cells,[1],21.5 ± 7.5%
same,percent Bodipy-positive cells,[2],31.8 ± 6.5%
CC(C)(C#N)c1ccc(N2C(=O)OCc3cnc4ccc(-c5cnc6ccccc6c5)cc4c32)cc1,percent Bodipy-positive cells,[1],61.1 ± 11%
same,percent Bodipy-positive cells,[2],87 ± 0.89%
CC(=O)Oc1cccc2c1C(=O)c1c(OC(C)=O)cc(C(=O)O)cc1C2=O [Diacerein],percent Bodipy-positive cells,[1],10.8 ± 1.4%
same,percent Bodipy-positive cells,[2],34 ± 0.66%
Cc1ncc(CSSCc2cnc(C)c(O)c2CO)c(CO)c1O,percent Bodipy-positive cells,[2],42.33 ± 0.31%
O=C(O)c1ccc2ccccc2c1O.OCc1cc(C(O)CNCCCCCCOCCCCc2ccccc2)ccc1O (stereo unspecified) [Salmeterol xinafoate],percent Bodipy-positive cells,[2],91.9 ± 2%
CCCCC(C)(O)C/C=C/[C@H]1[C@H](O)CC(=O)[C@@H]1CCCCCCC(=O)OC (stereo partly specified) [Misoprostol],percent Bodipy-positive cells,[3],16.5 ± 3.8%
same,percent Bodipy-positive cells,library stock concentration: 5.2 mM,10.4 ± 0.38%
CCCCC(C)(O)C/C=C/[C@H]1[C@H](O)CC(=O)[C@@H]1CCCCCCC(=O)OC (stereo partly specified) [Misoprostol (free acid)],percent Bodipy-positive cells,[3],17.9 ± 1.9%
COc1ccc2c(c1)c(CC(=O)NCCc1ccccc1)c(C)n2C(=O)c1ccc(Cl)cc1 [N-(2-phenylethyl)-Indomethacin amide],percent Bodipy-positive cells,[3],13.8 ± 1.8%
NC(C(=O)O)c1cc(O)cc(O)c1 (racemic),percent Bodipy-positive cells,[2],10.2 ± 1.6%
CCCCCCCCCCCCCCCCCCCC(=O)NCCO [Arachidoyl Ethanolamide],percent Bodipy-positive cells,[3],9.6 ± 1.1%
N=C(N)NC(=N)N1CCOCC1 [Moroxydine HCl],percent Bodipy-positive cells,[1],4.09 ± 0.62%
same,percent Bodipy-positive cells,library stock concentration: 9.6 mM,7.66 ± 2.6%
same,percent Bodipy-positive cells,[2],12.7 ± 2.6%
N=C(N)NC(=N)N1CCOCC1,percent Bodipy-positive cells,[2],27.1 ± 2.5%
"O=c1oc(Cl)c(Cl)c2ccccc12 [3,4-Dichloroisocoumarin]",percent Bodipy-positive cells,[2],100%
"O=c1oc(Cl)c(Cl)c2ccccc12 [3,4-dichloroisocoumarin]",percent Bodipy-positive cells,library stock concentration: 23.3 mM,97.7 ± 1.3%
N[C@H]1C(O)O[C@H](CO)[C@@H](O)[C@@H]1O (stereo partly specified) [Glucosamine hydrochloride],percent Bodipy-positive cells,library stock concentration: 9.3 mM,3.48 ± 1.8%
same,percent Bodipy-positive cells,[2],17.4 ± 0.5%
C=C1C[C@H]2[C@@H]3C=C(C)C4=CC(=O)CC[C@]4(C)[C@H]3CC[C@]2(C)[C@@]1(OC(C)=O)C(C)=O,percent Bodipy-positive cells,[2],44.5 ± 3.7%
C=C1C[C@H]2[C@@H]3C=C(C)C4=CC(=O)CC[C@]4(C)[C@H]3CC[C@]2(C)[C@@]1(OC(C)=O)C(C)=O [Melengestrol acetate],percent Bodipy-positive cells,[4],6.69 ± 5%
CC(C)C[C@@H](C=O)NC(=O)[C@H](CC(C)C)NC(=O)[C@H](CC(C)C)NC(=O)OCc1ccccc1,percent Bodipy-positive cells,[1],91.8 ± 10%
same,percent Bodipy-positive cells,[2],99.22 ± 0.11%
CS(=O)(=O)NC(=O)CCC/C=C\C[C@H]1C(=O)C[C@@H](O)[C@@H]1/C=C/[C@@H](O)COc1ccccc1 [Sulprostone],percent Bodipy-positive cells,[3],16.6 ± 1.1%
Cc1ccc2c(Cl)cc(Cl)c(O)c2n1,percent Bodipy-positive cells,[2],28.8 ± 1.1%
Cc1ccc2c(Cl)cc(Cl)c(O)c2n1 [Chlorquinaldol],percent Bodipy-positive cells,[1],15.9 ± 11%
same,percent Bodipy-positive cells,[2],58.2 ± 6.2%
N=C(N)N/N=C/c1c(Cl)cccc1Cl [Guanabenz acetate],percent Bodipy-positive cells,,53.6 ± 5.8%
same,percent Bodipy-positive cells,library stock concentration: 6.9 mM,27.1 ± 9%
same,percent Bodipy-positive cells,library stock concentration: 8.7 mM,29.9 ± 2.6%
same,percent Bodipy-positive cells,[2],42.9% and 28%
N=C(N)N/N=C/c1c(Cl)cccc1Cl [Guanabenz Acetate],percent Bodipy-positive cells,[1],19.45 ± 0.13%
same,percent Bodipy-positive cells,[2],79.9 ± 9.6%
O=C(O)/C=C\C(=O)O.O=C(O)/C=C\C(=O)O.c1cc(CN2CCCCC2)cc(OCCCNc2nc3ccccc3s2)c1,percent Bodipy-positive cells,[2],96.6 ± 1.2%
N[C@H](C(=O)O)[C@H](OCc1ccccc1)C(=O)O (racemic),percent Bodipy-positive cells,[2],8.29 ± 0.66%
"OC(CCN1CCCCC1)(c1ccccc1)C1CCCCC1 (stereo unspecified) [Trihexyphenidyl-D,L Hydrochloride]",percent Bodipy-positive cells,,34.8 ± 0.56%
OC(CCN1CCCCC1)(c1ccccc1)C1CCCCC1 (stereo unspecified) [Trihexyphenidyl hydrochloride],percent Bodipy-positive cells,library stock concentration: 5.9 mM,46.4 ± 4.7%
O=C(OCc1ccccc1)c1ccccc1 [Benzyl benzoate],percent Bodipy-positive cells,library stock concentration: 9.4 mM,22.7 ± 3.6%
same,percent Bodipy-positive cells,[2],14.9 ± 2.7%
N#C/C(=C\c1ccc(O)c(O)c1)C(=O)NCCCNC(=O)/C(C#N)=C/c1ccc(O)c(O)c1 [Tyrphostin AG 537],percent Bodipy-positive cells,[2],13.2 ± 10%
C(=C/CCNC)(/c1c(cccc1)CC2)\c3c2cccc3 [Nortriptyline],percent Bodipy-positive cells,library stock concentration: 7.6 mM,71.7 ± 20%
OC[C@H]1NC[C@@H](O)[C@@H](O)[C@@H]1O [1-Deoxymannojirimycin hydrochloride],percent Bodipy-positive cells,[2],7.44 ± 0.65%
same,percent Bodipy-positive cells,library stock concentration: 25.1 mM,16.8 ± 3.8%
CCCc1nc(C(C)(C)O)c(C(=O)O)n1Cc1ccc(-c2ccccc2-c2nnn[nH]2)cc1 [Olmesartan],percent Bodipy-positive cells,library stock concentration: 3.6 mM,13.6 ± 2.2%
CN(C)CCOC(=O)COc1ccc(Cl)cc1 [Centrophenoxine hydrochloride],percent Bodipy-positive cells,[2],31.3 ± 6.8%
CN(C)CCOC(=O)COc1ccc(Cl)cc1 [Meclofenoxate (Centrophenoxine) HCl],percent Bodipy-positive cells,[1],14.9 ± 3%
same,percent Bodipy-positive cells,[2],19.6 ± 4.3%
CN(C)CCOC(=O)COc1ccc(Cl)cc1 [Meclofenoxate hydrochloride],percent Bodipy-positive cells,,10.2 ± 5.1%
same,percent Bodipy-positive cells,[2],33.9 ± 11%
Brc1c(NC2=NCCN2)ccc2nccnc12 [Brimonidine Tartrate],percent Bodipy-positive cells,[1],9.64 ± 2.2%
same,percent Bodipy-positive cells,[2],28.4 ± 4.2%
Brc1c(NC2=NCCN2)ccc2nccnc12,percent Bodipy-positive cells,[2],18.2% and 5.48%
"Brc1c(NC2=NCCN2)ccc2nccnc12 [UK 14,304 tartrate]",percent Bodipy-positive cells,[2],7.62 ± 1.4%
CSc1nc(-c2ccnc(NC(C)c3ccccc3)c2)c(-c2ccc(F)cc2)[nH]1 (stereo unspecified) [p38 MAP Kinase Inhibitor III],percent Bodipy-positive cells,[1],17.6 ± 0.19%
CCCCCCCCCCCCCCCC(=O)NCCc1ccc(O)c(O)c1 [N-Palmitoyl Dopamine],percent Bodipy-positive cells,[3],7.81 ± 3.4%
